Experimental data published in patent US20030064921A1, “Methods and compounds for modulating melanocortin receptor ligand binding and activity” (The Regents of the University of California, priority 1999, published 2003).
Results are given in words; binding and its absence hold for the method and conditions named. Some entries that bind do so weakly or less than the wild type.

Sequences of proteins named here, by UniProt entry; tags and fusion partners are left off.
UniProt P41968: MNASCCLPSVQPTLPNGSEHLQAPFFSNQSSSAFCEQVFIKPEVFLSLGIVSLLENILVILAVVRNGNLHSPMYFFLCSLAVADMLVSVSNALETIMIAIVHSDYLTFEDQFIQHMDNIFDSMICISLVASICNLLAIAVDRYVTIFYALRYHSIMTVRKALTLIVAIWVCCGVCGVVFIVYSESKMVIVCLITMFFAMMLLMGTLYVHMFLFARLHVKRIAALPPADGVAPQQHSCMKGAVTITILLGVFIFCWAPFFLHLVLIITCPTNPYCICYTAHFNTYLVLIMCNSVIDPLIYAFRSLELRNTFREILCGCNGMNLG
UniProt P33032: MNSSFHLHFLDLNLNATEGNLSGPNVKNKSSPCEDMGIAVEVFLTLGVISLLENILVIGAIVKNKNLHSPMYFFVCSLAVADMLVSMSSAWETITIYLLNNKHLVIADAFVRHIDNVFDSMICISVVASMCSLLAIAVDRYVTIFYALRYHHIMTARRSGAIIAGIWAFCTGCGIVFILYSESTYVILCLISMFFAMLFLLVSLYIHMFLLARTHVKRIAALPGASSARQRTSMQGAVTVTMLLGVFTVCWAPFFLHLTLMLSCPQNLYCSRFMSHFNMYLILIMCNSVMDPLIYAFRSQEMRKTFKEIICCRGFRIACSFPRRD
UniProt Q01726: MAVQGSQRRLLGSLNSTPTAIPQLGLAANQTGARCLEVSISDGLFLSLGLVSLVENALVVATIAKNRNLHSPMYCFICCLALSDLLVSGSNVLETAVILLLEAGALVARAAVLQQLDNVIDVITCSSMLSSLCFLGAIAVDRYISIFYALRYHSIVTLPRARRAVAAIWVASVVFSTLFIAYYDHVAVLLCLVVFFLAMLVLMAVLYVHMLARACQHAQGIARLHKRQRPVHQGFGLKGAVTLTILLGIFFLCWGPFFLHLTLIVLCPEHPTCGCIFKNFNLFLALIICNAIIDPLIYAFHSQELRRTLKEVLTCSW

Key:
Experiment in all cases: displacement of NDP-MSH from the receptor
[1] = molecular target: melanocortin receptor 3 (human) (UniProt P41968)
[2] = molecular target: melanocortin receptor 5 (human) (UniProt P33032)
[3] = molecular target: melanocortin receptor 1 (human) (UniProt Q01726)

Measured: binding

CVRLHESCLGQQVPCCDPAATCYCRFFNAFCYCR (N-terminal acetyl group (Ac); C-terminal amide (-NH2); four disulfide bonds) [mini-AGRP Ac-…-NH2]
binds: all assays above
